Measured values reported in article PMC7053342.
These are yes or no findings as the source states them, for the method shown. In cells and extracts the contact can be indirect. Some entries that bind do so weakly or less than the wild type. For part of these data: Sequences can lack the tags named with a protein.

By UniProt entry, the sequences of proteins in these tests, tags left out.
UniProt P01106: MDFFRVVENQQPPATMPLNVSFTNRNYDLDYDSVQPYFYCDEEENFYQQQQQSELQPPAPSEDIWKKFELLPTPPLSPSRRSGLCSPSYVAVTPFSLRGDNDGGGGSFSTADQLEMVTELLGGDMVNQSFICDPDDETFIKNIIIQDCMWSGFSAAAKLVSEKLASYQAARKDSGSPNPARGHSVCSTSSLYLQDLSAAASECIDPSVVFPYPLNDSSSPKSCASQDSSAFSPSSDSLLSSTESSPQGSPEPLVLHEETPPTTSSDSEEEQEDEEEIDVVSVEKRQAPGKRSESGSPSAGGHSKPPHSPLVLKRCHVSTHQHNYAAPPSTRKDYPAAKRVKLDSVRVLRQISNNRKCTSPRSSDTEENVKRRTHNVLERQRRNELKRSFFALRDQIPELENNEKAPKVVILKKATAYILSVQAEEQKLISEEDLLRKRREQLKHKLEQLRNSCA
UniProt Q09472: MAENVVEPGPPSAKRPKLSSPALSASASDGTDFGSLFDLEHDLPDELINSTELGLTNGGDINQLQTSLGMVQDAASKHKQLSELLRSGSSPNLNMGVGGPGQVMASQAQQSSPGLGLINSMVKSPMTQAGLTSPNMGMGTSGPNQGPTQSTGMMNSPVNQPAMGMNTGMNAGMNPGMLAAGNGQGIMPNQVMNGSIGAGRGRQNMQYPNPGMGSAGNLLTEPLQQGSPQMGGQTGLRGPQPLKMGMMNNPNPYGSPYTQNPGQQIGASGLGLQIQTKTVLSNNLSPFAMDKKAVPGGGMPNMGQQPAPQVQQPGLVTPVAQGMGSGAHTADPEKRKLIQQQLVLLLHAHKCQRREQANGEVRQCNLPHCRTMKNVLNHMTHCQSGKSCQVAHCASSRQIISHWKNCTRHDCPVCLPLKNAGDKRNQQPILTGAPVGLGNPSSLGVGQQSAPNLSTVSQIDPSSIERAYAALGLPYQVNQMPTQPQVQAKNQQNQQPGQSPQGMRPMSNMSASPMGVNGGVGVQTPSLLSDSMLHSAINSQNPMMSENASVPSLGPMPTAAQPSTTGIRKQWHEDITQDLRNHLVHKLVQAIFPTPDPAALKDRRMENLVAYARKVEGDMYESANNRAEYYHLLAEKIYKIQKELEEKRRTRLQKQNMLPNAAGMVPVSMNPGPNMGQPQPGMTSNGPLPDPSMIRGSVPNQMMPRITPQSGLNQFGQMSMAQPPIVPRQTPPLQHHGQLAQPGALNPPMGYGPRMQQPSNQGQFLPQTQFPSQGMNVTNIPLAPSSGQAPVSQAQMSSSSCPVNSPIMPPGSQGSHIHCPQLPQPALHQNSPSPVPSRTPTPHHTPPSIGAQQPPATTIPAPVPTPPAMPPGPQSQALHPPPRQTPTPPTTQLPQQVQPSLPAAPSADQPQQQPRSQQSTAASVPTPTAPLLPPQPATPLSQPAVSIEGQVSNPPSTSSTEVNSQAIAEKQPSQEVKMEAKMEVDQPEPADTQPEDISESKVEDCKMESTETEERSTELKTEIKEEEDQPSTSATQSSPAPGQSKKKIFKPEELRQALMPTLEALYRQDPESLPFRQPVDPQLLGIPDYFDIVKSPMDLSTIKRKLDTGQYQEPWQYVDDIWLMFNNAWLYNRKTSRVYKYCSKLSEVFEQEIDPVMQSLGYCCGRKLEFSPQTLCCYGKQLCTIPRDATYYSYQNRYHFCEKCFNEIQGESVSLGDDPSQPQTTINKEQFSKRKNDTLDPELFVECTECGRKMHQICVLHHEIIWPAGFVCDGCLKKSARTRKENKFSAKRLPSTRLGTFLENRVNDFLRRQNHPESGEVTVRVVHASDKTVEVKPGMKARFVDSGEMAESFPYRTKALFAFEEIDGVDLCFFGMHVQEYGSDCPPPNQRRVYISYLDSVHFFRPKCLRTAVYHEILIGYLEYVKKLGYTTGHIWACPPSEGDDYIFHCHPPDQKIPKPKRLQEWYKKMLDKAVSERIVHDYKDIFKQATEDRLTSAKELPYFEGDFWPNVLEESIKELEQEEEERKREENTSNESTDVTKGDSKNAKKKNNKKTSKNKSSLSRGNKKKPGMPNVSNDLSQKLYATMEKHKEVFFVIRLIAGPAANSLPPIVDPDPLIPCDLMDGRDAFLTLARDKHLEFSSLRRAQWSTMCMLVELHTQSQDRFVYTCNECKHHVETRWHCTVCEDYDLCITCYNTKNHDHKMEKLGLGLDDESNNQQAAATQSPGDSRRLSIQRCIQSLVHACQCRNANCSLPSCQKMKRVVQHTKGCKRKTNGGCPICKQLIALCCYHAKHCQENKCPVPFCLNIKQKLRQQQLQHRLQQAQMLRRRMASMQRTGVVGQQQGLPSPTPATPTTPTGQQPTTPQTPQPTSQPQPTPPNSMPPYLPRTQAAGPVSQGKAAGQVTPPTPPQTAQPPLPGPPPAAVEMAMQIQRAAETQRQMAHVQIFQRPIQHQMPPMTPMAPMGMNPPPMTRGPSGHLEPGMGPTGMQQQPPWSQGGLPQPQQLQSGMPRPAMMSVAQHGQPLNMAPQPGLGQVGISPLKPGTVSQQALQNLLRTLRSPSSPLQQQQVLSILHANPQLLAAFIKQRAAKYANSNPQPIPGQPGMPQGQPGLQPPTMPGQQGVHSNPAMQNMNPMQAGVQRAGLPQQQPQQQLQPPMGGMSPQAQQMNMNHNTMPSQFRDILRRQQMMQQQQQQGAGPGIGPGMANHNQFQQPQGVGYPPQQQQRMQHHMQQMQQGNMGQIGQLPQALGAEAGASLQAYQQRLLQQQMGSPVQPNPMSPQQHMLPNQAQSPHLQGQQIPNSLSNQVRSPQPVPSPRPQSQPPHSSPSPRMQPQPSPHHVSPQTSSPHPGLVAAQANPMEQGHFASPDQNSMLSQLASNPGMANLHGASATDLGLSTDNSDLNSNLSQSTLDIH

Legend:
2×Flag-c-Myc = 2×Flag-c-Myc (UniProt P01106); assay: co-IP; HT29 cells cotransfected with 2×Flag- and 6×Myc-tagged plasmids, 48 h, RIPA lysate split and incubated with anti-Flag agarose and anti-Myc agarose at 4°C overnight; western blot with anti-Flag and anti-Myc
2×Flag-CARM1 = biological target: T1, 2×Flag-CARM1 (UniProt Q86X55); assay: as above
T1 sequence: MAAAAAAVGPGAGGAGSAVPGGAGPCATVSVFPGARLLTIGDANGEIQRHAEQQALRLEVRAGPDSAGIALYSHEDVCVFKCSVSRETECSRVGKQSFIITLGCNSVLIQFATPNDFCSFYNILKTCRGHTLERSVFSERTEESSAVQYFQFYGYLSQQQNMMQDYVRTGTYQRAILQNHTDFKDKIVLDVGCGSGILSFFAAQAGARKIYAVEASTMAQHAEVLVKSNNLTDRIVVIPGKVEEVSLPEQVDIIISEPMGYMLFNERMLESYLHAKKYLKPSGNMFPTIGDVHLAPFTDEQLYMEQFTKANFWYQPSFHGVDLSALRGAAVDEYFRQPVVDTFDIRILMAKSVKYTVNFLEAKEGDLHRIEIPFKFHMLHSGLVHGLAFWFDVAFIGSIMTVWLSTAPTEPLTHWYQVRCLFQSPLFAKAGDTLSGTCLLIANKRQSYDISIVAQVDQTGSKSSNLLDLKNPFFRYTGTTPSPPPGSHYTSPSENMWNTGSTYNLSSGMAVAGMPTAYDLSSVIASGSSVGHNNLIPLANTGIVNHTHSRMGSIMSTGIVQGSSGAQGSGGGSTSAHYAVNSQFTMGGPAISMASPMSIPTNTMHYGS

[1] = biological target: c-Myc (human (endogenous in CAC patient tissue)) (UniProt P01106); assay: co-IP; endogenous proteins; cancerous tissue from a stage IV CAC patient immunoprecipitated with anti-c-Myc (anti-IgG as control); western blot for c-Myc, Max, p300 and CARM1

Row | binding (2×Flag-c-Myc) | binding (2×Flag-CARM1) | binding [1] | Substance
1 | binds | binds |  | 6×Myc-p300 (from UniProt Q09472 1-2414)
2 |  |  | binds | p300 (from UniProt Q09472 1-2414)
